Reference: article PMC12220937
These are yes or no findings as the source states them, for the method shown. In cells and extracts the contact can be indirect. Some results given as binding are weak or reduced against the parent protein; the word gives no strength. Where a sequence is shown, tags or fusion partners need not be part of it.

Chains of the proteins cited; added tags and fusions are not shown. Lines headed by an entry give the natural chain unless they say otherwise; changes in a name come on top. A line that says so, or that is headed by a name, gives the form on record, which may keep a tag or linker.
UniProt P52946: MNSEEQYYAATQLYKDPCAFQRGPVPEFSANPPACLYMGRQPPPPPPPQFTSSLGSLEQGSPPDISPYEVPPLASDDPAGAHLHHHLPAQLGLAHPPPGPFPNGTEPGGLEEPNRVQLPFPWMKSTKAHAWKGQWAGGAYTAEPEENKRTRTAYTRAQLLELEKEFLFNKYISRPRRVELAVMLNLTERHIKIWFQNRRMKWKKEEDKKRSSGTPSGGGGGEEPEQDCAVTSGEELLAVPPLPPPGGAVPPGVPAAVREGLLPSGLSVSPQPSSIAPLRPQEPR
HA-tagged mouse Pdx1 Thr152Met (P52946, form named): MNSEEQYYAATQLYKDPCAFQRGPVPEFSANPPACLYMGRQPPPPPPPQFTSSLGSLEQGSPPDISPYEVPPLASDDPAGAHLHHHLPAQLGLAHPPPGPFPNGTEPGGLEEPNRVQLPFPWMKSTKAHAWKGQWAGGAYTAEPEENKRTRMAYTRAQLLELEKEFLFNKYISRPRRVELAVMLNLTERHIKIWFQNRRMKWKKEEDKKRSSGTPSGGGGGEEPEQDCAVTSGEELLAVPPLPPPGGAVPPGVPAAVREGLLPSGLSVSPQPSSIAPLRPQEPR

Target: T1, Flag-tagged mouse Oc1 (ONECUT1) (mouse) (UniProt O08755)
T1 sequence: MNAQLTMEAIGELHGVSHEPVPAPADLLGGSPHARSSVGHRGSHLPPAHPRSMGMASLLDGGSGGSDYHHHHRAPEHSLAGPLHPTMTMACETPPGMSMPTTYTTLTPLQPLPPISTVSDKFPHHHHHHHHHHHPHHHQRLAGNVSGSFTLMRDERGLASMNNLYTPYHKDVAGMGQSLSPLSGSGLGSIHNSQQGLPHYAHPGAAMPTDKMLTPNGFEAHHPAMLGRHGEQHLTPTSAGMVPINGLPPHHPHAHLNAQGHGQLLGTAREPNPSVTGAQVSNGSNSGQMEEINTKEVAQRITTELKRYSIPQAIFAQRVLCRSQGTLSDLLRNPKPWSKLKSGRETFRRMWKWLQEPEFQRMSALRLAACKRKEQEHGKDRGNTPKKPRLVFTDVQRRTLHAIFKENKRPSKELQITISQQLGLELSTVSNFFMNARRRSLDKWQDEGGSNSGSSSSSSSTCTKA
Assay: co-IP; HA-tagged mouse Pdx1 variants and Flag-tagged mouse Oc1 coexpressed in human embryonic kidney 293T cells; co-IP/Western blot with mouse anti-Flag and rabbit anti-PDX1; n = 3; which protein was precipitated not given

binding	Substance
binds	HA-tagged mouse Pdx1 (wild type) (from UniProt P52946 1-284)
binds	HA-tagged mouse Pdx1 Thr152Met (from UniProt P52946 1-284)
